Data published in the supplement of paper PMC12067093, “Discovery and optimisation of a covalent ligand for TRIM25 and its application to targeted protein ubiquitination” (Chemical Science, 2025).
The other results are listed elsewhere or left out.

Chains of the proteins cited; added tags and fusions are not shown. Lines headed by an entry give the natural chain unless they say otherwise; changes in a name come on top.
UniProt Q9P2E3: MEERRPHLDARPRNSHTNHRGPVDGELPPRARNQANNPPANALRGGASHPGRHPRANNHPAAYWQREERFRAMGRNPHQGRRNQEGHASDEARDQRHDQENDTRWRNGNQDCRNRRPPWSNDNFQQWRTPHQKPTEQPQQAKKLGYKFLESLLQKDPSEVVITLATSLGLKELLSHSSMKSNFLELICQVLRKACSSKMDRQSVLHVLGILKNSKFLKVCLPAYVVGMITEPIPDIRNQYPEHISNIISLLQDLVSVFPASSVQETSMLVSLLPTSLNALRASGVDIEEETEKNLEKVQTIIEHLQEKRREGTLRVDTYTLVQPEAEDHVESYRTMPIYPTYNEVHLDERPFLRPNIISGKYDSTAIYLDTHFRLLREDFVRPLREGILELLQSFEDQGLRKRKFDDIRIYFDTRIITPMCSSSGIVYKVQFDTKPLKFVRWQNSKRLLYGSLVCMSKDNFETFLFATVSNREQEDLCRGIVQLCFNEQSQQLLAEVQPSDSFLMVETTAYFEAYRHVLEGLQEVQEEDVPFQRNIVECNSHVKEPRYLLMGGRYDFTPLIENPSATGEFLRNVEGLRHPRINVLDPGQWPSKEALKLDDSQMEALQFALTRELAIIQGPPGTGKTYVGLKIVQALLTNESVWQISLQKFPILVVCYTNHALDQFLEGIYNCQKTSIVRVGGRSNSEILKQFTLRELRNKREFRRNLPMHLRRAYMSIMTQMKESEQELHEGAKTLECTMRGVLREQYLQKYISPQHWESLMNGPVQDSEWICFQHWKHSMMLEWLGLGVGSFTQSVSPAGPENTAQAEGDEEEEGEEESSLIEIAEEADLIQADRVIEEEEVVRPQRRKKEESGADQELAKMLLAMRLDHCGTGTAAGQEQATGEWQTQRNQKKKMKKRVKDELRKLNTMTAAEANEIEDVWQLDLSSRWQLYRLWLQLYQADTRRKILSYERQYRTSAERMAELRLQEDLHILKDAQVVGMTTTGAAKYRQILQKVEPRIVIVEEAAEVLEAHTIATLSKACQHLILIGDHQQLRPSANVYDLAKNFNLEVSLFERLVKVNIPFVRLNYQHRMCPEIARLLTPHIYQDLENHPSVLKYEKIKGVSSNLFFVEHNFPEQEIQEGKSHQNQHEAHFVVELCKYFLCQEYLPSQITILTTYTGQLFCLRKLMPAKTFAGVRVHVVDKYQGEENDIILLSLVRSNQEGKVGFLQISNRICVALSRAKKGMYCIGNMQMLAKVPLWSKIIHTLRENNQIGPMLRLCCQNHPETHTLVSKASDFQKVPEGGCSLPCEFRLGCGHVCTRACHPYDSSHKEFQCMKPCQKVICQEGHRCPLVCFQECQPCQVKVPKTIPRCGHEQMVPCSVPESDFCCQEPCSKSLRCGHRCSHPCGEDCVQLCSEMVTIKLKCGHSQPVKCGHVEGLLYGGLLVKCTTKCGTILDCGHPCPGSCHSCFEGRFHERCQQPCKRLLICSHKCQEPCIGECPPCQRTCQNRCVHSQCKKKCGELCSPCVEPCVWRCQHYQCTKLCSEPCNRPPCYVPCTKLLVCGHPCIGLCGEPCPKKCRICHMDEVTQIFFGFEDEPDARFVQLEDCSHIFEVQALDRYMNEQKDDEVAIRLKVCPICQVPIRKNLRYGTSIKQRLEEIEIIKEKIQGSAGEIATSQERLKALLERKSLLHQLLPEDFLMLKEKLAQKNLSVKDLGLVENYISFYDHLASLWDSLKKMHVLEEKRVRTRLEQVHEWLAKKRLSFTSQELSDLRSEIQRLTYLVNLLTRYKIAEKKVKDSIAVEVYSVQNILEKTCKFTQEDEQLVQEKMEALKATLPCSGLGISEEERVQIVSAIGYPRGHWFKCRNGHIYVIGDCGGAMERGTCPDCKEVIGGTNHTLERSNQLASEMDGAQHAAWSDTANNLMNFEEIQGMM
UniProt Q15942: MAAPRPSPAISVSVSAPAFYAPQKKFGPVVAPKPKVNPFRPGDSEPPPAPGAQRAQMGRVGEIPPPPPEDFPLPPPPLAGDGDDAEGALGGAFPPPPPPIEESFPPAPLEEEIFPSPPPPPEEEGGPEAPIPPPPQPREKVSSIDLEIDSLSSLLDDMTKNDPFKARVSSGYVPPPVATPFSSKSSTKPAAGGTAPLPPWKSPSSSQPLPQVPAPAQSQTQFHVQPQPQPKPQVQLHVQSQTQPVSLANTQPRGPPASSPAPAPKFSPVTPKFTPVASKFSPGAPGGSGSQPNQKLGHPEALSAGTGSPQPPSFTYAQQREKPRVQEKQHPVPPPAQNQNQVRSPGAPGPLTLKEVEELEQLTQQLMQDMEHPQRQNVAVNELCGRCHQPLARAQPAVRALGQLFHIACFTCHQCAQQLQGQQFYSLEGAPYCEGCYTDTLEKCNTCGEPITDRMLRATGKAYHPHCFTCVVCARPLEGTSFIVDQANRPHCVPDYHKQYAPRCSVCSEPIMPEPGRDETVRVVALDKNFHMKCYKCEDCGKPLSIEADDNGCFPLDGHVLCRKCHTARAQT
UniProt Q8IYH5: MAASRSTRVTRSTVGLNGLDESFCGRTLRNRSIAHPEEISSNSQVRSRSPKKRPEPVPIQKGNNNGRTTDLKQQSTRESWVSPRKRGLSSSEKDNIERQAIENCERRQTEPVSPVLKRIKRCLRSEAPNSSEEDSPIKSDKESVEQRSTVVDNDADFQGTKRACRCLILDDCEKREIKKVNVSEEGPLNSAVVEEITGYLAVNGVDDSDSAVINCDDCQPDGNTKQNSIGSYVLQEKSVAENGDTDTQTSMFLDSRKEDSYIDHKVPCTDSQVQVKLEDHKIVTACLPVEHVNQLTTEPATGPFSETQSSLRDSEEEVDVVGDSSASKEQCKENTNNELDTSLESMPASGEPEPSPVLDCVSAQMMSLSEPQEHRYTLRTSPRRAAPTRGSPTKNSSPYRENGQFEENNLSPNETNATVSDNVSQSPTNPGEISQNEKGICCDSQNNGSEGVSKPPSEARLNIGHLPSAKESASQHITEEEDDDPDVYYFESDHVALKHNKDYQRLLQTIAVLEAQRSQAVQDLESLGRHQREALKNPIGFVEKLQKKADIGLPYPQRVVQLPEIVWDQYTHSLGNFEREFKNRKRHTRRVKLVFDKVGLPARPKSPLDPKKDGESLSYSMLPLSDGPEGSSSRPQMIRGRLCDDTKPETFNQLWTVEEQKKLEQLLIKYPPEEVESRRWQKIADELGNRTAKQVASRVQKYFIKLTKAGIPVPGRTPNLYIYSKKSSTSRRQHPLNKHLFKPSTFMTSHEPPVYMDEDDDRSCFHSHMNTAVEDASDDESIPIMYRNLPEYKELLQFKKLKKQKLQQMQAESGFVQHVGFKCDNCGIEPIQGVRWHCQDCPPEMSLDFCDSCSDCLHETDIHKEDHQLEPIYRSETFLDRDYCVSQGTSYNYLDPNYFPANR
UniProt A7E2V4, whole entry, looked up: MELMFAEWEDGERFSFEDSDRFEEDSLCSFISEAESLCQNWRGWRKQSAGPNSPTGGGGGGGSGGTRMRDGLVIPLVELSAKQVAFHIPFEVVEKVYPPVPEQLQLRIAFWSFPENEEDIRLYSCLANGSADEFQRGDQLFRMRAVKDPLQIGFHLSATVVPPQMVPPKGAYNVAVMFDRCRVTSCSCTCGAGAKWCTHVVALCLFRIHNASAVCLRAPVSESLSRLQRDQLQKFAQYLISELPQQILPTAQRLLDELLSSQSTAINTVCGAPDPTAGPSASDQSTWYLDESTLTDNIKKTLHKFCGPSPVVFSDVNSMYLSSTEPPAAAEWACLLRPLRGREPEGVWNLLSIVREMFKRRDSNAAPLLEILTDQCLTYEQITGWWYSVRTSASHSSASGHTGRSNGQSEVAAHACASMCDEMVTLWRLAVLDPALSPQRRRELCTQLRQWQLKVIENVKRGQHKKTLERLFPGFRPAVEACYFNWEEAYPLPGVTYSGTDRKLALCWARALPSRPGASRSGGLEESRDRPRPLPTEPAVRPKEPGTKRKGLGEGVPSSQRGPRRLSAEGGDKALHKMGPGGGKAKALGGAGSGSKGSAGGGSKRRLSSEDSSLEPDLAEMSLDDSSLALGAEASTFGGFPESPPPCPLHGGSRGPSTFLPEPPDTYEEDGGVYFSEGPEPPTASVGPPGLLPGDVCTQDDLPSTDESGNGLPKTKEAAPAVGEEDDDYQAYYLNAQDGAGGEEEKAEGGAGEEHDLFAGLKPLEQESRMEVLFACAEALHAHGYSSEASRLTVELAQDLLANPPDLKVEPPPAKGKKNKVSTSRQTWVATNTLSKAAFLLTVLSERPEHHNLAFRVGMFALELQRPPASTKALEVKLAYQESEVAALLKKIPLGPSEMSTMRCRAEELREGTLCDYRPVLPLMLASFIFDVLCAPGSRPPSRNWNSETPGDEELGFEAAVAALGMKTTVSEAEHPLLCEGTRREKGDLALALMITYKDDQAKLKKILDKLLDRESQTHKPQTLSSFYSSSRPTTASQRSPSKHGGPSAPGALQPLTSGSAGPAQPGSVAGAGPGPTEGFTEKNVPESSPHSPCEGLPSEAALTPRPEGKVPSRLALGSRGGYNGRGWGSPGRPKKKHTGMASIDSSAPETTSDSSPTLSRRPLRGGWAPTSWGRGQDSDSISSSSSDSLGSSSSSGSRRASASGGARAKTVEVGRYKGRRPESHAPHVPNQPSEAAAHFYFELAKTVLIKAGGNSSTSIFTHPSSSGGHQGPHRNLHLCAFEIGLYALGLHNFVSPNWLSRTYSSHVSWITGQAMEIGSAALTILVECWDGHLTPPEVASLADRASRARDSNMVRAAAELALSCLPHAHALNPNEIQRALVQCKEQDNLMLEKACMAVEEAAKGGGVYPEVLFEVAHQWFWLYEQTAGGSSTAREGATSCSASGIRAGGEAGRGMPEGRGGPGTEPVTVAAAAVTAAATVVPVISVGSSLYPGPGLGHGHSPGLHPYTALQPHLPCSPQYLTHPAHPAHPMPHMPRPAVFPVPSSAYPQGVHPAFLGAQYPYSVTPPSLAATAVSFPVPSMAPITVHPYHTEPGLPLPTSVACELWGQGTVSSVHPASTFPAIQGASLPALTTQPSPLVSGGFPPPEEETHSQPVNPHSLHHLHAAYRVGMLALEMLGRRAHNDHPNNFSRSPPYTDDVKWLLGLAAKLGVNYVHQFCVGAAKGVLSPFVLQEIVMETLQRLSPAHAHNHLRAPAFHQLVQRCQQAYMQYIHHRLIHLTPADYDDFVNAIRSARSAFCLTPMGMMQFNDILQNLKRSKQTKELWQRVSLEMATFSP
UniProt Q6DD87: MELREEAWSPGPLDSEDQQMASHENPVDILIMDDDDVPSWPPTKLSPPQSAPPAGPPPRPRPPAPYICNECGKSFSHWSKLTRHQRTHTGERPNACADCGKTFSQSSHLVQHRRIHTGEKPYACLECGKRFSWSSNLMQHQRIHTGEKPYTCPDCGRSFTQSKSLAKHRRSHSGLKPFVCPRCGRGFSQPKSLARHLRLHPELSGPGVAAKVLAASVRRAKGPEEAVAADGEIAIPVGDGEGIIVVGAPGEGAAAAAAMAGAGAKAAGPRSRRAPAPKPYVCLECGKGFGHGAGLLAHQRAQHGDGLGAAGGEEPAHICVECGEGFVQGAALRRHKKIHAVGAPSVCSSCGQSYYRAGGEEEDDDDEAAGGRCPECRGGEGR
UniProt O95218: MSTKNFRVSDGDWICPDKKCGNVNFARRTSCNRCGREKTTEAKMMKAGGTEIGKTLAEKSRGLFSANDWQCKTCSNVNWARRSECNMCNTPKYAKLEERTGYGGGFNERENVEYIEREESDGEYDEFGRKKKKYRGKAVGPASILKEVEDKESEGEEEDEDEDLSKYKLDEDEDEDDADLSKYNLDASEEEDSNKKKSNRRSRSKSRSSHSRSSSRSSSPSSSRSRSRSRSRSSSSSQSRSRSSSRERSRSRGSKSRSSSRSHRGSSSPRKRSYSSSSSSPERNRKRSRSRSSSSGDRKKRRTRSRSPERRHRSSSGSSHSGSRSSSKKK
UniProt Q9H5H4: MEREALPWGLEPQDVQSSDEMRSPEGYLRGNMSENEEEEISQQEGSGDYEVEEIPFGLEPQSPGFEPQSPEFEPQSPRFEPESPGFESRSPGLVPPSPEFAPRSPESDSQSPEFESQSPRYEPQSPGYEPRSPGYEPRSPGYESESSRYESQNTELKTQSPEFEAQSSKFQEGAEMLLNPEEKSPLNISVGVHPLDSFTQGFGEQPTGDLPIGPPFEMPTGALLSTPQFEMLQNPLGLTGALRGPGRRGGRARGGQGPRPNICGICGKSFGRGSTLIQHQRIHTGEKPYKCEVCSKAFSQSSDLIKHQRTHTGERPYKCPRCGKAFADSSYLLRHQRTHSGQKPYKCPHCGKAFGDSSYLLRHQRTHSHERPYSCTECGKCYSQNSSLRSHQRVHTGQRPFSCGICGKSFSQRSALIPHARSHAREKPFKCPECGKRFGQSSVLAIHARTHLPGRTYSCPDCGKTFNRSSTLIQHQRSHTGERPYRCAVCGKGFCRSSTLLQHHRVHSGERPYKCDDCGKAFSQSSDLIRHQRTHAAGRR
UniProt Q9Y5V0: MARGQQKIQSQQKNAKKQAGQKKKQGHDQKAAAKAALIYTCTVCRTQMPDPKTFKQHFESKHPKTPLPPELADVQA

Compound: CC1Cc2ccccc2N1C(=O)C1CCCN(C1)C(=O)CCl (mixture of isomers) [TRIM25 ligand 11 (diastereomer mixture)]
Experiment: probe-labelled cysteine peptide fold change vs DMSO (competition) (log2 fold change); higher = less target engagement (more negative = stronger competition)
Details: THP-1, incubation time: 4 h
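Also: competitive chemoproteomic profiling in live THP-1 cells with an iodoacetamide desthiobiotin (IA-DTB) probe, comparing probe-labelled peptide intensities in compound-treated cells against DMSO-treated controls.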

Target	probe-labelled cysteine peptide fold change (10 µM)	probe-labelled cysteine peptide fold change (50 µM)
ZNFX1_Q9P2E3_1302_LGCGHVCTR (UniProt Q9P2E3)	-0.0121	-0.0647
ZYX_Q15942_537+540+553+562_CEDCGKPLSIEADDNGCFPLDGHVLCR (UniProt Q15942)	-0.272	-0.47
ZNFX1_Q9P2E3_1558_LLVCGHPCIGLCGEPCPK (UniProt Q9P2E3)	0.0303	-0.113
ZNFX1_Q9P2E3_1288_VPEGGCSLPCEFR (UniProt Q9P2E3)	0.0473	-0.139
ZW10_O43264_124_QLQEFSTAIEEYNCALTEK (UniProt O43264)	-0.047	-0.177
ZYX_Q15942_470+473_AYHPHCFTCVVCAR (UniProt Q15942)	-0.037	0.0173
ZW10_O43264_588_RLGTECFLAQMR (UniProt O43264)	-0.0254	0.0074
ZYX_Q15942_537+553_CEDCGKPLSIEADDNGCFPLDGHVLCR (UniProt Q15942)	-0.198	-0.132
ZZZ3_Q8IYH5_24_STVGLNGLDESFCGR (UniProt Q8IYH5)	0.0269	-0.268
ZSWIM8_A7E2V4_979_TTVSEAEHPLLCEGTR (UniProt A7E2V4)	-0.0561	-0.0308
ZNHIT6_Q9NWK9_244_YSCSLPCVK (UniProt Q9NWK9)	-0.0986	-0.0684
ZZEF1_O43149_1832+1835_TCFLGGVKPEGHGDDHEMVNMEFTCDHCQGLIIGR (UniProt O43149)	0.147	-0.0608
ZNFX1_Q9P2E3_539_NIVECNSHVK (UniProt Q9P2E3)	0.0145	-0.127
ZNF787_Q6DD87_376_AGGEEEDDDDEAAGGRCPECR (UniProt Q6DD87)	-0.195	-0.0682
ZZEF1_O43149_2553_CDQATAESNPVTQK (UniProt O43149)	0.225	-0.0492
ZNF692_Q9BU19_235_LLPSPVTCTPK (UniProt Q9BU19)	-0.149	-0.243
ZYX_Q15942_447_CNTCGEPITDR (UniProt Q15942)	0.164	0.167
ZYX_Q15942_537_CEDCGKPLSIEADDNGCFPLDGHVLCR (UniProt Q15942)	-0.2	-0.0799
ZW10_O43264_650_LGIVWQDVLPVNIYCK (UniProt O43264)	0.0783	0.0695
ZNHIT2_Q9UHR6_361_CQFLLAWTNENEAALTPLALDCAR (UniProt Q9UHR6)	-0.211	-0.0994
ZZEF1_O43149_1287_NIPDDPCR (UniProt O43149)	-0.0538	-0.11

Target	probe-labelled cysteine peptide fold change (10 µM)	probe-labelled cysteine peptide fold change (50 µM)
ZYX_Q15942_467+473_AYHPHCFTCVVCAR (UniProt Q15942)	0.111	-0.0518
ZNFX1_Q9P2E3_1554_LLVCGHPCIGLCGEPCPK (UniProt Q9P2E3)	0.125	0.11
ZRANB2_O95218_31_RTSCNR (UniProt O95218)	-0.11	-0.0859
ZRANB2_O95218_15_VSDGDWICPDK (UniProt O95218)	-0.0466	0.0327
ZW10_O43264_568_LAPILCDGTATFVDLVPGFR (UniProt O43264)	0.117	0.00333
ZRANB2_O95218_15_VSDGDWICPDKK (UniProt O95218)	-0.131	-0.0344
ZYX_Q15942_553_PLSIEADDNGCFPLDGHVLCR (UniProt Q15942)	0.0845	0.0573
ZNF691_Q5VV52_257_THTGERPYECTECGR (UniProt Q5VV52)	0.0167	0.08
ZNHIT6_Q9NWK9_181_EELMHGECVK (UniProt Q9NWK9)	0.188	-0.242
ZNF787_Q6DD87_350_IHAVGAPSVCSSCGQSYYR (UniProt Q6DD87)	-0.111	-0.085
ZYX_Q15942_537+540+553_CEDCGKPLSIEADDNGCFPLDGHVLCR (UniProt Q15942)	-0.0901	-0.207
ZYX_Q15942_470_AYHPHCFTCVVCAR (UniProt Q15942)	-0.0192	0.0143
ZNFX1_Q9P2E3_1292_VPEGGCSLPCEFR (UniProt Q9P2E3)	-0.109	-0.373
ZNF784_Q8NCA9_301_THFHGPGPGLGDSGGQLGSSAAEGSGSGCGVGDPAEEGRGETAK (UniProt Q8NCA9)	-0.0244	-0.0853
ZZEF1_O43149_1259_HQVCPELELEASWPTHPHR (UniProt O43149)	-0.00151	0.062
ZZEF1_O43149_2466_ICFLMAHDALNAPLHILR (UniProt O43149)	-0.0256	0.00418
ZZEF1_O43149_719_AEAEQSVTCAHCR (UniProt O43149)	0.0127	-0.0587
ZNF768_Q9H5H4_378_THSHERPYSCTECGK (UniProt Q9H5H4)	-0.0576	-0.159
ZNF706_Q9Y5V0_44_AALIYTCTVCR (UniProt Q9Y5V0)	-0.155	0.148
ZYX_Q15942_540+553_CEDCGKPLSIEADDNGCFPLDGHVLCR (UniProt Q15942)	-0.143	-0.0851
ZYX_Q15942_504_CSVCSEPIMPEPGR (UniProt Q15942)	-0.16	-0.12

Some values from the results shown:
In probe-labelled cysteine peptide fold change (10 µM), ZZZ3_Q8IYH5_24_STVGLNGLDESFCGR (UniProt Q8IYH5) shows 0.0269
In probe-labelled cysteine peptide fold change (50 µM), ZZEF1_O43149_2466_ICFLMAHDALNAPLHILR (UniProt O43149) shows 0.00418
In probe-labelled cysteine peptide fold change (10 µM), ZNF768_Q9H5H4_378_THSHERPYSCTECGK (UniProt Q9H5H4) shows -0.0576
In probe-labelled cysteine peptide fold change (10 µM), ZZEF1_O43149_1832+1835_TCFLGGVKPEGHGDDHEMVNMEFTCDHCQGLIIGR (UniProt O43149) shows 0.147

Later entries.

Target	probe-labelled cysteine peptide fold change (10 µM)	probe-labelled cysteine peptide fold change (50 µM)
ZNF865_P0CJ78_383_PFSCSVCSK (UniProt P0CJ78)	-0.0827	-0.0857
ZW10_O43264_588_LGTECFLAQMR (UniProt O43264)	0.647	0.508
ZWILCH_Q9H900_585_IFFTNMVTCSQVHFK (UniProt Q9H900)	0.0233	0.107
ZW10_O43264_477_VSNTQYHEVMNLEPENTLDQHSFSLPTCR (UniProt O43264)	-0.0262	-0.109
ZW10_O43264_346_NCLVYSIPTNSSK (UniProt O43264)	-0.0105	0.193
ZRANB2_O95218_20_CGNVNFAR (UniProt O95218)	-0.125	-0.11
ZPR1_O75312_288_EVIIMATNCENCGHR (UniProt O75312)	-0.318	-0.0377
ZNHIT3_Q15649_30_VPYCSVVCFR (UniProt Q15649)	-0.153	-0.142
ZYG11B_Q9C0D3_207_LESLDISNTSITDITALLACK (UniProt Q9C0D3)	-0.184	-0.278
ZYX_Q15942_444+447_CNTCGEPITDR (UniProt Q15942)	-0.164	-0.00315
ZNHIT2_Q9UHR6_41_THGTCAENFYR (UniProt Q9UHR6)	0.0136	-0.0745
ZNF746_Q6NUN9_385_CKPPVGLNPR (UniProt Q6NUN9)	-0.0357	0.00372
ZYX_Q15942_384_QNVAVNELCGR (UniProt Q15942)	-0.145	-0.319
ZSWIM8_A7E2V4_1094_NVPESSPHSPCEGLPSEAALTPRPEGK (UniProt A7E2V4)	0.00545	-0.182
ZZEF1_O43149_728_DTEESVCGATLLLR (UniProt O43149)	0.0329	0.0452
ZYX_Q15942_540+553+562_CEDCGKPLSIEADDNGCFPLDGHVLCR (UniProt Q15942)	-0.241	-0.194
ZYX_Q15942_467+470_AYHPHCFTCVVCAR (UniProt Q15942)	-0.119	-0.0219
ZYX_Q15942_553+562_CEDCGKPLSIEADDNGCFPLDGHVLCR (UniProt Q15942)	-0.307	-0.21
ZNHIT2_Q9UHR6_188_VLGDVPGACTPVVPTR (UniProt Q9UHR6)	0.127	-0.0875
ZNRD1_Q9P1U0_115+118_SADEGQTVFYTCTNCK (UniProt Q9P1U0)	0.152	-0.2
ZRANB2_O95218_71_GLFSANDWQCK (UniProt O95218)	-0.108	-0.119

Target	probe-labelled cysteine peptide fold change (10 µM)	probe-labelled cysteine peptide fold change (50 µM)
ZNF76_P36508_342_HHVVHTHCK (UniProt P36508)	0.158	0.135
ZYX_Q15942_562_PLSIEADDNGCFPLDGHVLCR (UniProt Q15942)	-0.203	-0.0291
ZYX_Q15942_507_CSVCSEPIMPEPGRDETVR (UniProt Q15942)	-0.134	-0.122
ZYX_Q15942_387_CHQPLAR (UniProt Q15942)	-0.149	-0.164
ZYX_Q15942_467+470+473_AYHPHCFTCVVCAR (UniProt Q15942)	-0.241	-0.3
ZYX_Q15942_492_PLEGTSFIVDQANRPHCVPDYHK (UniProt Q15942)	-0.0694	-0.0353
ZNF692_Q9BU19_366_SFSCPEPACGK (UniProt Q9BU19)	-0.00798	0.0618
ZSWIM8_A7E2V4_1365_AAAELALSCLPHAHALNPNEIQR (UniProt A7E2V4)	-0.283	0.386
ZYX_Q15942_504+507_CSVCSEPIMPEPGRDETVR (UniProt Q15942)	0.0308	-0.145
ZNF8_P17098_450_HEWTEALGCDPPLSQDER (UniProt P17098)	-0.0363	-0.105
ZNRD1_Q9P1U0_78_TSVVFHQLGTAMPMSVEEGPECQGPVVDRR (UniProt Q9P1U0)	-0.107	-0.29
ZNF710_Q8N1W2_91_ALEEPAEEEVLEVEAACEK (UniProt Q8N1W2)	0.158	-0.171
ZYX_Q15942_537+540_CEDCGKPLSIEADDNGCFPLDGHVLCR (UniProt Q15942)	-0.102	-0.0602
ZWILCH_Q9H900_354_SDLDFAEQLWCK (UniProt Q9H900)	0.176	-0.00549
ZNRF1_Q8ND25_202_LPCLCIYHK (UniProt Q8ND25)	-0.139	-0.17
ZWILCH_Q9H900_7_LNCAAEDFYSR (UniProt Q9H900)	0.0467	0.0431
ZNF839_A8K0R7_48+54_TEPQSCFLSDLCQPPAQGFVQR (UniProt A8K0R7)	-0.326	-0.294
ZNF740_Q8NDX6_9_AQASLLACEGLAGVSLVPTAASK (UniProt Q8NDX6)	-0.102	-0.0641
ZNHIT6_Q9NWK9_171_FVGQCIK (UniProt Q9NWK9)	0.0565	-0.25
